Test results taken from PubChem BioAssay AID1688 (National Center for Advancing Translational Sciences (NCATS), 2009).
About 2,400 (1.1%) of roughly 220,000 compounds were called active. The inconclusive results got no clear call from the source; some entries with a clear call stand among them for comparison. Calls follow the shape of the dose curve; as a rule, active = well fitted inhibition curve with a large enough effect; inconclusive = small, poorly fitted or top-dose-only effect, or effect the other way; inactive = no such curve, though single readings can be large or run the other way. Potencies of inconclusive entries are doubtful fits and often do not repeat.

Test: qHTS Multiplex Assay to Identify Dual Action Probes in a Cell Model of Huntington: Aggregate Formation (GFP); also: nearly all actives have a fitted effect of over 60% in size
Details: PC12 HttQ103-GFP aggregates, Acumen cytometry, 40 h; activity change, negative = inhibition: at 46.1 µM (top of the series) unless noted
Summary of the method: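 Quantitative HTS on tebufenozide-induced (100 nM) PC12 cells stably expressing polyQ103 Huntingtin exon 1–GFP. Reduction of bright GFP aggregates, detected by laser scanning cytometry after lysis, identified actives across the titration.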
% is scaled to controls: 0 for no effect and ±100 for the full control effect; potency is read from the fitted curve at half-maximal effect.

Q: For `O=C(Nc1ccc(N2CCCCC2)c(Cl)c1)c1ccc2c(c1)OCCO2`, which Potency is on record?
A: inconclusive: 25.1 µM [inhibitor, single point]

Q: With `CCOC(=O)c1c(NC(=O)Cn2nnc3ccccc32)sc2c1CCC(C)C2` (centres undefined) as the molecule, how does the Potency read?
A: inactive

Q: For `CN(c1ccccc1)C1CCCCC1NS(=O)(=O)c1ccc(Cl)cc1` (centres undefined), which Potency is on record?
A: inconclusive: 35.5 µM [inhibitor, single point]

Q: Which activity change, negative = inhibition does the source give for `COc1cc(OC)c2ccc(=O)oc2c1C(CCN1CCCC1)c1ccc2c(c1)OCO2` (centres undefined) here?
A: inactive: -0.573% [at 9.22 µM]

Q: With `O=c1ccc(-c2nc3cc(Cl)ccc3n2Cc2ccccc2)c[nH]1` as the molecule, how does the Potency read?
A: inconclusive: 8.91 µM [activator, partial curve, poor fit]

Q: With `CN(C)S(=O)(=O)c1ccc(N2CCN(S(=O)(=O)c3ccc(F)cc3)CC2)c(Cl)c1` as the molecule, how does the Potency read?
A: active: 10 µM

Q: With `COc1ccccc1OCC(=O)/C=C1/N(C)c2ccccc2C1(C)C` as the molecule, how does the Potency read?
A: inconclusive: 15.8 µM [inhibitor, partial curve]

Q: For `COCCCNS(=O)(=O)c1ccc(SC)cc1`, which Potency is on record?
A: inactive

Q: Which Potency does the source give for `CCc1c(C)nc2ncnn2c1N1CCC(C(=O)Nc2ccc(C)cc2)CC1` here?
A: inconclusive: 25.1 µM [inhibitor, partial curve]

Q: For `Cn1c2ccccc2c(=O)c2c(=O)n(-c3ccccc3)c(C3CCCCC3)nc21`, which Potency is on record?
A: inactive

Q: Which Potency does the source give for `Cc1ccccc1C(=O)NCC(=O)O` here?
A: inconclusive: 3.16 µM [activator, single point]

Q: For `COc1ccc(C(=O)NC(=S)Nc2ccc(N3CCCC3)cc2)cc1OC`, which Potency is on record?
A: inconclusive: 0.562 µM [activator, full curve, poor fit]

Q: Which activity change, negative = inhibition does the source give for `CN(C)c1ccnc(-n2cccc2/C=N/O)c1C#N` here?
A: inactive: -5.52% [at 9.22 µM]

Q: With `O=C(OCn1ncc(Cl)c(Cl)c1=O)c1ccccc1Cl` as the molecule, how does the Potency read?
A: inconclusive: 31.6 µM [inhibitor, single point]

Q: With `COCCNCCCOc1ccc(C(C)(C)c2ccccc2)cc1` as the molecule, how does the Potency read?
A: inactive

Q: Which Potency does the source give for `Cc1ccc(S(=O)(=O)N2C(=O)/C(=C3\SC(=S)NC3=O)c3ccccc32)cc1` here?
A: active: 0.794 µM

Q: For `O=C(Cn1cnc2c(nnn2Cc2ccc(Cl)cc2)c1=O)N1CCCc2ccccc21`, which Potency is on record?
A: inactive

Q: With `CCOC(=O)c1c(NC(=O)/C=C\C(=O)O)sc(C)c1-c1ccccc1` as the molecule, how does the Potency read?
A: inconclusive: 0.562 µM [activator, full curve, poor fit]

Q: With `CCOC(=O)N1CCC(NC(=O)C2CCCN(S(=O)(=O)c3ccc4c(c3)oc(=O)n4C)C2)CC1` (centres undefined) as the molecule, how does the Potency read?
A: inactive

Q: For `CCOC(=O)CSc1nc2cc(C(=O)N3CCC(C(N)=O)CC3)ccc2c(=O)n1-c1ccccc1`, which Potency is on record?
A: active: 2.82 µM

Q: Which Potency does the source give for `c1ccc(-c2n[nH]c(-c3ccccc3)c2-c2nc3ccccc3[nH]2)cc1` here?
A: inconclusive: 22.4 µM [inhibitor, single point]

Q: Which Potency does the source give for `COc1ccc(-c2nc(N=Nc3ccc(O)cc3)n[nH]2)cc1` here?
A: inactive

Q: Which Potency does the source give for `CCCCn1c(NC(=O)c2ccc(Br)o2)c(S(=O)(=O)c2ccccc2)c2nc3ccccc3nc21` here?
A: inconclusive: 35.5 µM [inhibitor, single point]

Q: Which Potency does the source give for `O=C(CCl)NCc1cc(-c2ccc(Cl)cc2)no1` here?
A: active: 35.5 µM

Q: For `O=c1c(C(c2nnnn2C2CCCCC2)N2CCCCC2)coc2ccc(Cl)cc12` (centres undefined), which Potency is on record?
A: inconclusive: 2.82 µM [activator, single point]

Q: With `CCOc1ccc(NC(=O)CSc2nc3[nH]ncc3c(=O)n2-c2ccccc2OC)cc1` as the molecule, how does the Potency read?
A: inconclusive: 0.708 µM [activator, full curve, poor fit]

Q: With `CC(C)CC[n+]1ccn(C2=C([O-])c3ccccc3C(=O)/C2=N\S(=O)(=O)c2ccccc2)c1` as the molecule, how does the Potency read?
A: inconclusive: 15.8 µM [inhibitor, single point]

Q: Which Potency does the source give for `N#Cc1nc(-c2ccco2)oc1N1CCC(C(N)=O)CC1` here?
A: inactive

Q: For `CN(c1ccc(C(=O)N2CCCCC2)cc1)S(=O)(=O)c1ccccc1`, which Potency is on record?
A: inconclusive: 12.6 µM [inhibitor, single point]

Q: With `CN(CC(=O)NNC(=O)c1cccnc1)S(=O)(=O)c1cc(Cl)ccc1Cl` as the molecule, how does the Potency read?
A: inconclusive: 0.562 µM [inhibitor, single point]

Q: Which Potency does the source give for `Brc1cc2c(cc1/C=N/Nc1nc(N3CCCC3)nc(N3CCOCC3)n1)OCO2` here?
A: inconclusive: 35.5 µM [inhibitor, single point]

Q: Which Potency does the source give for `CCNc1nc(SCCOc2ccc(C)cc2)nc(N(C)C)n1` here?
A: inconclusive: 7.08 µM [inhibitor, partial curve]

Q: With `Cc1ccccc1-n1c(=O)[nH]c(=O)c2c(N)c(C(=O)c3ccc(Cl)cc3)sc21` as the molecule, how does the Potency read?
A: inconclusive: 35.5 µM [activator, single point]

Q: With `c1ccc(SSc2ccccc2)cc1` as the molecule, how does the Potency read?
A: inactive

Q: Which Potency does the source give for `c1coc(CN(Cc2ccco2)c2ncnc3c2oc2ccccc23)c1` here?
A: inactive

Q: For `CCN1CCN(c2cc(C)c3cc(NC(=O)c4cncc(Br)c4)ccc3n2)CC1`, which Potency is on record?
A: inconclusive: 14.1 µM [inhibitor, single point]

Q: With `CC(CN1CCOCC1)OC(=O)c1ccc2c(c1)OCCO2` (centres undefined) as the molecule, how does the Potency read?
A: inconclusive: 25.1 µM [activator, partial curve]

Q: With `N#C/C(=C\c1cccs1)C(=O)NCc1cccnc1` as the molecule, how does the Potency read?
A: inconclusive: 39.8 µM [inhibitor, partial curve, poor fit]

Q: Which Potency does the source give for `Cn1c(=O)n(Cc2ccc(F)cc2)c(=O)c2c1nc1n2CCCN1C1CCCCC1` here?
A: inconclusive: 35.5 µM [inhibitor, single point]

Q: For `Cc1ccn2c(c1)nc(=S)n2C(=O)c1ccccc1`, which Potency is on record?
A: inconclusive: 11.2 µM [activator, partial curve]

Q: Which Potency does the source give for `C=CCN1C(c2ccc(OCC)cc2)=CS/C1=C(\C#N)c1nnc2n1CCCCC2` here?
A: inconclusive: 35.5 µM [inhibitor, single point]

Q: With `Cc1ncc(CO)c(/C=N/NC(=S)Nc2cccc(Cl)c2)c1O` as the molecule, how does the Potency read?
A: inconclusive: 12.6 µM [inhibitor, partial curve]

Q: With `COC(=O)CN1C(=S)N(c2ccc(OC)cc2)C(=O)/C1=C/c1ccc(N2CCOCC2)cc1` as the molecule, how does the Potency read?
A: inconclusive: 35.5 µM [activator, single point]

Q: Which Potency does the source give for `COc1ccc(-c2cc(=O)oc3cc(OC(=O)C4CCCCC4)c(Cl)cc23)cc1` here?
A: active: 0.282 µM
